Measured data: PubChem BioAssay AID1259425 (University of Nebraska Medical Center, 2018)

- Screen: 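Compare each knockdown with KSR1 silencing using changes in marker transcripts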 (primary screen)
- System: HCT116 human colon cancer cells
- Reagents: siRNA pool against human genes, 50 nM siRNA
- Measurement: 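mRNA of six signature genes measured together by branched-DNA assay after 50 nM siRNA pool, blank removed, divided by geometric mean of two housekeeping genes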
- Scale: BNIP3L mRNA: higher = more BNIP3L transcript after knockdown; NDRG1 mRNA: higher = more NDRG1 transcript after knockdown; BNIP3 mRNA: higher = more BNIP3 transcript after knockdown; ALDOC mRNA: higher = more ALDOC transcript after knockdown; ACSL5 mRNA: higher = more ACSL5 transcript after knockdown
Here is one part, drawn at random, of about 14,000 deposited reagents. Not given: the time to read-out.

| Target gene | BNIP3L mRNA, set 1 | NDRG1 mRNA, set 1 | BNIP3 mRNA, set 1 | ALDOC mRNA, set 1 | ACSL5 mRNA, set 1 |
| --- | --- | --- | --- | --- | --- |
| MEIS1 (Meis homeobox 1) | 0.131 | 0.156 | 0.258 | 0.0206 | 0.14 |
| ANKRD11 (ankyrin repeat domain 11) | 0.0782 | 0.254 | 0.364 | 0.0384 | 0.0865 |
| RAB5C (RAB5C, member RAS oncogene family) | 0.074 | 0.186 | 0.231 | 0.0325 | 0.129 |
| GCKR (glucokinase regulator) | 0.124 | 0.255 | 0.307 | 0.00896 | 0.217 |
| CACNA1B (calcium voltage-gated channel subunit alpha1 B) | 0.0955 | 0.15 | 0.369 | 0.026 | 0.108 |
| TRAK2 (trafficking kinesin protein 2) | 0.0844 | 0.291 | 0.218 | 0.0128 | 0.185 |
| RPS6KL1 (ribosomal protein S6 kinase like 1) | 0.109 | 0.32 | 0.19 | 0.0117 | 0.305 |
| LITAF (lipopolysaccharide induced TNF factor) | 0.0308 | 0.2 | 0.264 | 0.0125 | 0.116 |
| LIG3 (DNA ligase 3) | 0.072 | 0.0523 | 0.443 | 0.00844 | 0.104 |
| SH3RF1 (SH3 domain containing ring finger 1) | 0.0592 | 0.0727 | 0.299 | 0.0203 | 0.0845 |
| LRFN1 | 0.134 | 0.106 | 0.314 | 0.00905 | 0.143 |
| GOPC (golgi associated PDZ and coiled-coil motif containing) | 0.0838 | 0.167 | 0.21 | 0.026 | 0.139 |
| COL7A1 (collagen type VII alpha 1 chain) | 0.0863 | 0.276 | 0.283 | 0.0244 | 0.132 |
| FAM217B (family with sequence similarity 217 member B) | 0.0815 | 0.17 | 0.218 | 0.0333 | 0.203 |
| IPPK (inositol-pentakisphosphate 2-kinase) | 0.101 | 0.149 | 0.677 | 0.0218 | 0.371 |
| HDGFL3 (HDGF like 3) | 0.159 | 0.119 | 0.415 | 0.0207 | 0.153 |
| FOXD4 (forkhead box D4) | 0.043 | 0.465 | 0.268 | 0.022 | 0.147 |
| PSMD9 (proteasome 26S subunit, non-ATPase 9) | 0.115 | 0.443 | 0.293 | 0.0147 | 0.411 |
| IL2RG (interleukin 2 receptor subunit gamma) | 0.0943 | 0.0803 | 0.266 | 0.0281 | 0.135 |
| PTK2B (protein tyrosine kinase 2 beta) | 0.232 | 0.263 | 0.442 | 0.00383 | 0.349 |

2 entries from above, reduced to “BNIP3 mRNA, set 1”.
RAB5C (RAB5C, member RAS oncogene family): 0.231
GCKR (glucokinase regulator): 0.307
